According to paper PMC12207318:
Results are given in words; binding and its absence hold for the method and conditions named. In cells and extracts the contact can be indirect. Some entries that bind do so weakly or less than the wild type.

Molecular target: Telomerase Associated Protein 1 (human (endogenous in patient-derived GSCs)) (UniProt Q99973)
Assay: co-IP; co-IP and blot (Figure 4k: TEP1 with KEAP1; Figure 4l: KEAP1 with NRF2 in TEP1 knock-down versus control groups); co-IP not described in the methods

With “Kelch Like ECH Associated Protein 1 (from UniProt Q14145 1-624)” the binding was “binds”.
